{
  "sequences": {"note": "Amino acid sequences for entries named in this document (tags omitted). A change or cut given only in a name is not applied to a line headed by its entry.", "UniProt Q9BYT8, whole entry, looked up": "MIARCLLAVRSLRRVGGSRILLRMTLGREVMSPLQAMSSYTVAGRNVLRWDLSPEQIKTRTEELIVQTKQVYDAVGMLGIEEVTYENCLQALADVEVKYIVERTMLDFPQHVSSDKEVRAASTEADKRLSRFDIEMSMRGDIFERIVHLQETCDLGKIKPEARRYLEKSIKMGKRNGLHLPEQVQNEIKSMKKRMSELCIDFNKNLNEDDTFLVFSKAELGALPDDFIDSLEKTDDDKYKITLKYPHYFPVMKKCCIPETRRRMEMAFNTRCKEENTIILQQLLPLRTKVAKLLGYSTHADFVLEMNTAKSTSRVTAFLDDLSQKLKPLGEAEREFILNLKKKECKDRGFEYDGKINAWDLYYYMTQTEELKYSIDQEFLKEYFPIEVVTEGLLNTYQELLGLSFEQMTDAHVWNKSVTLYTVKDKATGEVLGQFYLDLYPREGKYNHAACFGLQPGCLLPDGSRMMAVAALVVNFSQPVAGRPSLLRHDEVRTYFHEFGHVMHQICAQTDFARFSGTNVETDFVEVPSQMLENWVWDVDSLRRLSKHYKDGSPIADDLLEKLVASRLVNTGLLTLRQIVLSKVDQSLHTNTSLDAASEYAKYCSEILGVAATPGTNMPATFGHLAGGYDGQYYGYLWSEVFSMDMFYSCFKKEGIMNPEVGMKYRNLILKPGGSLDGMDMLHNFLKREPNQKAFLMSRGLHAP", "UniProt Q8NDH3": "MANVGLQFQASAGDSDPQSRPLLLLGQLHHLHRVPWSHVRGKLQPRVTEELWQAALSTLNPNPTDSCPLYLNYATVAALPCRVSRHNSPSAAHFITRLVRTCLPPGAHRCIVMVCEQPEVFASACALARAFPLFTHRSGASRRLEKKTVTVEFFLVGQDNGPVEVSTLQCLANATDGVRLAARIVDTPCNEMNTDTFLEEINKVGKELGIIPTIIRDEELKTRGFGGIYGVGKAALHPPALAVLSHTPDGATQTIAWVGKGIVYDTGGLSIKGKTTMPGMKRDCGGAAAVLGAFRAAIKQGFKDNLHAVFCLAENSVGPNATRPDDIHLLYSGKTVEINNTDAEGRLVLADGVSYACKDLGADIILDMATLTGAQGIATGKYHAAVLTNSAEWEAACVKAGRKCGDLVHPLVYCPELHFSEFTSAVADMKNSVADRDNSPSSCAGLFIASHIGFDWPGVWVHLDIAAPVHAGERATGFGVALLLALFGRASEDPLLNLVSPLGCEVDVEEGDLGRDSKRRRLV", "UniProt O96028": "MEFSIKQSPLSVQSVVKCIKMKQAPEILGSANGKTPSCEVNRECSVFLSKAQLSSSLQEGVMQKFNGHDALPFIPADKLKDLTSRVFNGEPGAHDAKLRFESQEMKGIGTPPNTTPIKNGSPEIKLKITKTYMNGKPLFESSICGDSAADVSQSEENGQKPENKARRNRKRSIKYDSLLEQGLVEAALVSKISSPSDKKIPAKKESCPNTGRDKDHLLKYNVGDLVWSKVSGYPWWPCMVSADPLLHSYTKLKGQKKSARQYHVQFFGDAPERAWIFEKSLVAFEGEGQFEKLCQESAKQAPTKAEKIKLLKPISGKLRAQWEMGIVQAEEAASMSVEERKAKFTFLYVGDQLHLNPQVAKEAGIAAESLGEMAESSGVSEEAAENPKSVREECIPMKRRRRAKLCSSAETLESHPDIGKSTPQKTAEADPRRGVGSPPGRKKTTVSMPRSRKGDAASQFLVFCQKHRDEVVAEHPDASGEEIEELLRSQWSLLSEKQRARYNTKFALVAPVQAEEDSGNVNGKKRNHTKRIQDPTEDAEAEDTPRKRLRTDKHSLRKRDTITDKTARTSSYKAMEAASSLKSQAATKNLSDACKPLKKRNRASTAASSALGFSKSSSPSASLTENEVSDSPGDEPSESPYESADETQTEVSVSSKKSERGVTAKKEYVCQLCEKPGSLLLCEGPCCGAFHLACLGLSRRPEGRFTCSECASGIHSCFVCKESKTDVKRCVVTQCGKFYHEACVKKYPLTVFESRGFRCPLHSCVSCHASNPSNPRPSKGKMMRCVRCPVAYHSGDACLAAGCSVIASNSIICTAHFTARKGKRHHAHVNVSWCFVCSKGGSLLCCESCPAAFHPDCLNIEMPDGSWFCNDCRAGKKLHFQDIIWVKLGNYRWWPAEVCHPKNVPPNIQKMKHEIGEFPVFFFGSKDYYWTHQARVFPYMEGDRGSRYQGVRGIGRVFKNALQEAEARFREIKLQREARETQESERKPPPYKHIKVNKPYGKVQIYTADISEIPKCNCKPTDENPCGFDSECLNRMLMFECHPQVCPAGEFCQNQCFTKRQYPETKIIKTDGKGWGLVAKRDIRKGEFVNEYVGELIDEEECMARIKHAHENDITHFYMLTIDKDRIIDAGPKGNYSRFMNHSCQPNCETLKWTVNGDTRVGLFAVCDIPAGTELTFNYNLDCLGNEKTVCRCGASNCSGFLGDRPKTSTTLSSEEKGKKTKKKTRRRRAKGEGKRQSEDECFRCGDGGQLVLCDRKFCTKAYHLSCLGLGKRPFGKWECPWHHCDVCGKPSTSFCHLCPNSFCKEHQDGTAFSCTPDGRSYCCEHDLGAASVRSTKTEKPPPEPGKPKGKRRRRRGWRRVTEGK", "UniProt P46087": "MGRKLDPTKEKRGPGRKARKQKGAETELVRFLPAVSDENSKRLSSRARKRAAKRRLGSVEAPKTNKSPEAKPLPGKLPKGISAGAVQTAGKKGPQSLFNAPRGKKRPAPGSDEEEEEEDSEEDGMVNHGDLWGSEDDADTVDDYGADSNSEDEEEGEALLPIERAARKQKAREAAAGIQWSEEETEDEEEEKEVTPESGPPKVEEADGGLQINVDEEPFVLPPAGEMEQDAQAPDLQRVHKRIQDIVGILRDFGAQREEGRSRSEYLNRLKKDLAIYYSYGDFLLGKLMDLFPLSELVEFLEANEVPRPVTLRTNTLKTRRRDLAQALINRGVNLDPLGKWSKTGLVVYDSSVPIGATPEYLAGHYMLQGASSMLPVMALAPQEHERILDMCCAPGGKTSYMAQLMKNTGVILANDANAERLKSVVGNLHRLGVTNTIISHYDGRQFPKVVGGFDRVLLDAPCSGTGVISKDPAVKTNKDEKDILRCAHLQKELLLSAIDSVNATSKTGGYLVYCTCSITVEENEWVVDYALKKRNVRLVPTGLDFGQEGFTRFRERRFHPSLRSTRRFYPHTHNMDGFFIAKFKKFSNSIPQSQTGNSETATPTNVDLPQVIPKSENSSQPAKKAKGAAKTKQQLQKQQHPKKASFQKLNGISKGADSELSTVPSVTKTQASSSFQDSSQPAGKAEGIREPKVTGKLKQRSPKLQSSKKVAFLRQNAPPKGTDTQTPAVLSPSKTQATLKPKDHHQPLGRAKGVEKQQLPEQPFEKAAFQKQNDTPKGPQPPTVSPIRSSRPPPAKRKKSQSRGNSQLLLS", "UniProt Q08J23, whole entry, looked up": "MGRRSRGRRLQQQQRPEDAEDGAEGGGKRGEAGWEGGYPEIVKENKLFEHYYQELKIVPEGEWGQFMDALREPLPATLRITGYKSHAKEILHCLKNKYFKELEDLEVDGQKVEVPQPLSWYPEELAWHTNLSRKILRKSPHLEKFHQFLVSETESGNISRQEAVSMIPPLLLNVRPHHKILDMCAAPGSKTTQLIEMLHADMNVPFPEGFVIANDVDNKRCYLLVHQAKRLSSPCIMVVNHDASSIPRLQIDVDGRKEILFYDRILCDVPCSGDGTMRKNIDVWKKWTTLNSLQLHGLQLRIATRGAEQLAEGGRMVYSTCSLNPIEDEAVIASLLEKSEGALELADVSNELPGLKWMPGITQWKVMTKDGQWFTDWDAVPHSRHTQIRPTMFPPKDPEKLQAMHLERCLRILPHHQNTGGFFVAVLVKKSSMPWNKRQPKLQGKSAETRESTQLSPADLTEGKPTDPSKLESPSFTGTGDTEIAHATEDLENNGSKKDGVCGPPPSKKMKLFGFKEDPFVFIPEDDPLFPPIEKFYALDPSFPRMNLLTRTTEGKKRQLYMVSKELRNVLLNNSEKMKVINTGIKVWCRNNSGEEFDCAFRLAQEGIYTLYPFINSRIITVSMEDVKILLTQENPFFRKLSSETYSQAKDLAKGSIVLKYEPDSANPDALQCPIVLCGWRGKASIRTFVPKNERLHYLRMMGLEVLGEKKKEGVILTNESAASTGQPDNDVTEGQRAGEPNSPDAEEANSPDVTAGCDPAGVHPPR", "UniProt Q86WQ0": "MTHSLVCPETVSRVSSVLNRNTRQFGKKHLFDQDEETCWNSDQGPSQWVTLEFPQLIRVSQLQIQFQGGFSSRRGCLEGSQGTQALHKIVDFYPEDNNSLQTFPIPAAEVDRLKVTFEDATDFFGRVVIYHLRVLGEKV", "UniProt Q9BVI4": "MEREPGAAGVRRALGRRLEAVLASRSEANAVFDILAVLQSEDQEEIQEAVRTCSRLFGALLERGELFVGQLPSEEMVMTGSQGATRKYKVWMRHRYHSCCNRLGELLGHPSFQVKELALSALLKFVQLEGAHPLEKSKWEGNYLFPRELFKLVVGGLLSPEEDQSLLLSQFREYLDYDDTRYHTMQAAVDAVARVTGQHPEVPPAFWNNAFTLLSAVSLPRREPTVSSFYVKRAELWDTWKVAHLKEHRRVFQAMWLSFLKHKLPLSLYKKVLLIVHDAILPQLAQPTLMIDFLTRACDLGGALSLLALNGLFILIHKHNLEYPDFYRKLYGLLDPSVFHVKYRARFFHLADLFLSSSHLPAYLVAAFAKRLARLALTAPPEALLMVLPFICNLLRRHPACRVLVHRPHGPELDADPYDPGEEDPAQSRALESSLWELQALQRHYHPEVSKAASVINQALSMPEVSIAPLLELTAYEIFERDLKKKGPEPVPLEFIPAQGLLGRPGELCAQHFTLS", "UniProt Q969T7": "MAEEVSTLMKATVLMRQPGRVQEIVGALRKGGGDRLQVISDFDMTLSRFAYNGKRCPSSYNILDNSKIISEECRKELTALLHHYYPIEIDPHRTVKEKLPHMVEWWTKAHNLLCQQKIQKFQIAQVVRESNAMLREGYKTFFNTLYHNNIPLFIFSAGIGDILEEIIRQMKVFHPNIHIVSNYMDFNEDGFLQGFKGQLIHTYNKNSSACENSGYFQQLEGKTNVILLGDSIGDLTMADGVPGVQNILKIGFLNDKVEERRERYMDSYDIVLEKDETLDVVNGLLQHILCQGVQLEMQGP", "UniProt P46459": "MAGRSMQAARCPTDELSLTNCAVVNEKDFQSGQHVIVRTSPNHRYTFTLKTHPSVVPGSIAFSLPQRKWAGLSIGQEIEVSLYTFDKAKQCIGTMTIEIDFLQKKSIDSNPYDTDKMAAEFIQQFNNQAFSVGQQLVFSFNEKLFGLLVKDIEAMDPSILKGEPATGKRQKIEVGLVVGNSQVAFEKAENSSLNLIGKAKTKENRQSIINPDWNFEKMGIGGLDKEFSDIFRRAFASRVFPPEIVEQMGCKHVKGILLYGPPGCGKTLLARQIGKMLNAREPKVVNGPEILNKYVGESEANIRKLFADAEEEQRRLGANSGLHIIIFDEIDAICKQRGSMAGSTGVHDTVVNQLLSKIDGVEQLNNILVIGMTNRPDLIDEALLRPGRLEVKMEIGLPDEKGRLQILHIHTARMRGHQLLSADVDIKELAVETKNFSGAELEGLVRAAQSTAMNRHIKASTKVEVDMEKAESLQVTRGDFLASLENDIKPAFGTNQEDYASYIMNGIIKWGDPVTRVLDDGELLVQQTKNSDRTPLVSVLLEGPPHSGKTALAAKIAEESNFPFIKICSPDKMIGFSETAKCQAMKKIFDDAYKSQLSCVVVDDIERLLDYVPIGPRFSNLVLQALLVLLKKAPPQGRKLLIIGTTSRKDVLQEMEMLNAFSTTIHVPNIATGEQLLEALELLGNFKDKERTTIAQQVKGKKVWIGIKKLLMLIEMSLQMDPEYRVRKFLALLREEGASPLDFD", "UniProt P06748, whole entry": "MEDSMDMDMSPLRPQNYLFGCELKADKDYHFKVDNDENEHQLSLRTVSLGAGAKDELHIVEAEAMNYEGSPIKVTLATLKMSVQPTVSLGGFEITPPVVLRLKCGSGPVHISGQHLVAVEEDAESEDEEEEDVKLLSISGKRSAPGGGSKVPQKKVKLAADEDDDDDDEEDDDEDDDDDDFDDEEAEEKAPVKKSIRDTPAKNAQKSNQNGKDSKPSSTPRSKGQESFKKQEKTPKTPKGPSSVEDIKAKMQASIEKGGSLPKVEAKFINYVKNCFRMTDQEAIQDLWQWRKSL", "UniProt Q9UMY1": "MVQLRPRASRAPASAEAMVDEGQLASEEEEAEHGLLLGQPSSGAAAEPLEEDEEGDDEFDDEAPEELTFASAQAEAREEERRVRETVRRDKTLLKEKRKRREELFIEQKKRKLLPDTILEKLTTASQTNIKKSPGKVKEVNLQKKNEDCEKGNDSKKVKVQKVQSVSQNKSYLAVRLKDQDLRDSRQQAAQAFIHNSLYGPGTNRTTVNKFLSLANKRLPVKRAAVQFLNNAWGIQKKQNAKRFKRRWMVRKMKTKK"},
  "source": "the supplement of paper PMC12067093",
  "about": "“Discovery and optimisation of a covalent ligand for TRIM25 and its application to targeted protein ubiquitination” (Chemical Science, 2025)",
  "note": "The list shows a part of the results.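 Note: competitive profiling in live THP-1 cells: cysteine peptides tagged with an iodoacetamide desthiobiotin (IA-DTB) probe, intensity after compound treatment relative to DMSO-treated cells.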",
  "data": [
    {"compound": "Cc1cc(ccc1-c1ccccc1)C(=O)N1CCCN(CC1)C(=O)CCl [compound 10]", "assay": "probe-labelled cysteine peptide fold change vs DMSO (competition) (log2 fold change); higher = less target engagement (more negative = stronger competition)", "details": "10 µM; THP-1; incubation time: 4 h", "values": [
      {"target": "NLN_Q9BYT8_153_IVHLQETCDLGK (UniProt Q9BYT8)", "probe-labelled cysteine peptide fold change": -0.194},
      {"target": "NPTN_Q9Y639_259_NEGQDATMYCK (UniProt Q9Y639)", "probe-labelled cysteine peptide fold change": -0.0545},
      {"target": "NRDC_O43847_690_IVNTPQGCLWYKK (UniProt O43847)", "probe-labelled cysteine peptide fold change": -0.0865},
      {"target": "NPEPL1_Q8NDH3_397_YHAAVLTNSAEWEAACVK (UniProt Q8NDH3)", "probe-labelled cysteine peptide fold change": -0.104},
      {"target": "NSD3_Q9BZ95_495_CNMSPVVK (UniProt Q9BZ95)", "probe-labelled cysteine peptide fold change": -0.109},
      {"target": "NSD2_O96028_899_WWPAEVCHPK (UniProt O96028)", "probe-labelled cysteine peptide fold change": -0.133},
      {"target": "NOP2_P46087_393_ILDMCCAPGGK (UniProt P46087)", "probe-labelled cysteine peptide fold change": -0.19},
      {"target": "NSUN2_Q08J23_93_EILHCLK (UniProt Q08J23)", "probe-labelled cysteine peptide fold change": 0.0908},
      {"target": "NR2C2AP_Q86WQ0_76_GCLEGSQGTQALHK (UniProt Q86WQ0)", "probe-labelled cysteine peptide fold change": -0.16},
      {"target": "NSMAF_Q92636_803_EGTVNIWDLTTATLMHQIPCHSGIVCDTAFSPDSR (UniProt Q92636)", "probe-labelled cysteine peptide fold change": 0.177},
      {"target": "NPEPL1_Q8NDH3_357_LVLADGVSYACK (UniProt Q8NDH3)", "probe-labelled cysteine peptide fold change": -0.0677},
      {"target": "NSMCE1_Q8WV22_207_ICNICHSLLIQGQSCETCGIR (UniProt Q8WV22)", "probe-labelled cysteine peptide fold change": -0.0377},
      {"target": "NRDE2_Q9H7Z3_900_AYEHALQDCLGDSCVSNPAPTDSCSR (UniProt Q9H7Z3)", "probe-labelled cysteine peptide fold change": -0.0512},
      {"target": "NOTCH1_P46531_1293_VNDFHCECR (UniProt P46531)", "probe-labelled cysteine peptide fold change": -0.159},
      {"target": "NOCT_Q9UK39_165_DNFVQCPVEALKWEER (UniProt Q9UK39)", "probe-labelled cysteine peptide fold change": -0.16},
      {"target": "NOL9_Q5SY16_140_ALLLLPVEQGFTFSGICR (UniProt Q5SY16)", "probe-labelled cysteine peptide fold change": -0.0051},
      {"target": "NR2C2AP_Q86WQ0_7_THSLVCPETVSR (UniProt Q86WQ0)", "probe-labelled cysteine peptide fold change": -0.0852},
      {"target": "NRF1_Q16656_229_ESCKPIWWPEDIPWANVR (UniProt Q16656)", "probe-labelled cysteine peptide fold change": 0.0541},
      {"target": "NOP2_P46087_487_CAHLQK (UniProt P46087)", "probe-labelled cysteine peptide fold change": -0.0171},
      {"target": "NRBP1_Q9UHY1_340_LLAAHCIVGHQHMIPENALEEITK (UniProt Q9UHY1)", "probe-labelled cysteine peptide fold change": 0.105},
      {"target": "NLN_Q9BYT8_458_YNHAACFGLQPGCLLPDGSR (UniProt Q9BYT8)", "probe-labelled cysteine peptide fold change": -0.101},
      {"target": "NLN_Q9BYT8_507_TYFHEFGHVMHQICAQTDFAR (UniProt Q9BYT8)", "probe-labelled cysteine peptide fold change": -0.0376},
      {"target": "NT5C3A_Q9H0P0_120_LVTDECR (UniProt Q9H0P0)", "probe-labelled cysteine peptide fold change": 0.134},
      {"target": "NOC4L_Q9BVI4_100_HRYHSCCNR (UniProt Q9BVI4)", "probe-labelled cysteine peptide fold change": -0.259},
      {"target": "NLN_Q9BYT8_451_YNHAACFGLQPGCLLPDGSR (UniProt Q9BYT8)", "probe-labelled cysteine peptide fold change": 0.12},
      {"target": "NT5C3B_Q969T7_73_IISEECR (UniProt Q969T7)", "probe-labelled cysteine peptide fold change": -0.00671},
      {"target": "NRBF2_Q96F24_155_SEPAEPCIGSK (UniProt Q96F24)", "probe-labelled cysteine peptide fold change": -0.296},
      {"target": "NSUN2_Q08J23_221_RCYLLVHQAK (UniProt Q08J23)", "probe-labelled cysteine peptide fold change": 0.193},
      {"target": "NPRL2_Q8WTW4_9_IECIFFSEFHPTLGPK (UniProt Q8WTW4)", "probe-labelled cysteine peptide fold change": -0.02},
      {"target": "NR2C2_P49116_153_NLTYSCR (UniProt P49116)", "probe-labelled cysteine peptide fold change": 0.115},
      {"target": "NSF_P46459_599_SQLSCVVVDDIER (UniProt P46459)", "probe-labelled cysteine peptide fold change": -0.0463},
      {"target": "NSD2_O96028_207_ESCPNTGR (UniProt O96028)", "probe-labelled cysteine peptide fold change": -0.0881},
      {"target": "NSF_P46459_334_LGANSGLHIIIFDEIDAICK (UniProt P46459)", "probe-labelled cysteine peptide fold change": -0.0805},
      {"target": "NOC4L_Q9BVI4_99_YHSCCNR (UniProt Q9BVI4)", "probe-labelled cysteine peptide fold change": 0.197},
      {"target": "NSDHL_Q15738_40_CTVIGGSGFLGQHMVEQLLAR (UniProt Q15738)", "probe-labelled cysteine peptide fold change": -0.0629},
      {"target": "NOP58_Q9Y2X3_139_EMAAMCLGLAHSLSR (UniProt Q9Y2X3)", "probe-labelled cysteine peptide fold change": 0.189},
      {"target": "NPM1_P06748_21_MEDSMDMDMSPLRPQNYLFGCELK (UniProt P06748)", "probe-labelled cysteine peptide fold change": -0.208},
      {"target": "NOL7_Q9UMY1_149_KNEDCEK (UniProt Q9UMY1)", "probe-labelled cysteine peptide fold change": 0.0489}
    ]}
  ]
}
